Consider ten sequences from publication PMC7708053.

Chains of the proteins cited; added tags and fusions are not shown. Lines headed by an entry give the natural chain unless they say otherwise; changes in a name come on top.
UniProt O00425, whole entry: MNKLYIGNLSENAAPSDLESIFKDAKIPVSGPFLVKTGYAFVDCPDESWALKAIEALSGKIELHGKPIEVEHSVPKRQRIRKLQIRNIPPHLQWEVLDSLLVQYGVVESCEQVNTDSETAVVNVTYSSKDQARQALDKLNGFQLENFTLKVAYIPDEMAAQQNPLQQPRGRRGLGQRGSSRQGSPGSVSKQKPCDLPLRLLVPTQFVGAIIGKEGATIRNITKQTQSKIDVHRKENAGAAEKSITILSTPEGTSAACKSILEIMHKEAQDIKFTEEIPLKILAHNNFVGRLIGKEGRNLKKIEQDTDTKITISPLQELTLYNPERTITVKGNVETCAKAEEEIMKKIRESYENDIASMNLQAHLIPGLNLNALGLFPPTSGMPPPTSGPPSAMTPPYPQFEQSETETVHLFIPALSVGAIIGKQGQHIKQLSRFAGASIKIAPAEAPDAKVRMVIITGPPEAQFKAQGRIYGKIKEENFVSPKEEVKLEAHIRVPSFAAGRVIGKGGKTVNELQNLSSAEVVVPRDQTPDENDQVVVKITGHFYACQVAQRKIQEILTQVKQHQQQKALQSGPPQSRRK
UniProt P14866: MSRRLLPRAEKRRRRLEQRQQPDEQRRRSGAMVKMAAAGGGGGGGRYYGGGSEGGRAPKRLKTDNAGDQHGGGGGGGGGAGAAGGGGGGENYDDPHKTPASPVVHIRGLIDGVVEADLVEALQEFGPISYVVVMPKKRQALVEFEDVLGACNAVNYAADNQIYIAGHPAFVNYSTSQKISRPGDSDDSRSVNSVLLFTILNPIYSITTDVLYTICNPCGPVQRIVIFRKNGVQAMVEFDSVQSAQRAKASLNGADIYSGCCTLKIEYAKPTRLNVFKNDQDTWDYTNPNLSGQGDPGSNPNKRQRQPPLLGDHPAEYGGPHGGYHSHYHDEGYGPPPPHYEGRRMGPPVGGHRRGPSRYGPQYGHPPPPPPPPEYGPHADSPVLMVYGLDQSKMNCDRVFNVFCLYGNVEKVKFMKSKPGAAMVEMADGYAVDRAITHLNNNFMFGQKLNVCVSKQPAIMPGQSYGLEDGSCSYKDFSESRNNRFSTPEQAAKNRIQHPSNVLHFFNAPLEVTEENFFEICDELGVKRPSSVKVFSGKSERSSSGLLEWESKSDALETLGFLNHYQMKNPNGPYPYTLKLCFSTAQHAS

Data set [1] concerns the target IMP3 (UniProt O00425). In words: pull-down. Conditions: 5-azido-C3-UTP (33%) internal, 50 pmol biotinylated RNA on streptavidin beads with HeLa lysate in RIPA (50 mM Tris-Cl pH 7.4, 150 mM NaCl, 5 mM EDTA, 1% NP-40), washed at 300 mM KCl, protein in an extract, label: biotin (DBCO-PEG4, internal U).
Data set [2] deals with hnRNP L (UniProt P14866). The data set is described as follows: pull-down. Conditions: 5-azido-C3-UTP (33%) internal, 50 pmol biotinylated RNA on streptavidin beads with HeLa lysate in RIPA (50 mM Tris-Cl pH 7.4, 150 mM NaCl, 5 mM EDTA, 1% NP-40), washed at 300 mM KCl, protein in an extract, label: biotin (DBCO-PEG4, internal U).

Construct, isoform or probe ends are uncertain for at least one entry. At least one result comes from cells or an extract, where the contact may be indirect. No signal at the amounts used counts as a negative. At least one verdict rests on a figure or table, not on a statement of the authors. For part of these data: The comparison behind a weaker result is the experiment's own reference, which may not be listed here.

Take “GGGAGUAAGCCACACACACACACACACACACACACACACAGCUUACAGUA [(CA)15 circular]”: the binding result in data set [1] (circular (T4 RNA ligase)) is “binds more weakly”; in data set [2] (circular (T4 RNA ligase)) it was “binds”.
The like results for “GGGAGUAAGCCACACACACACACACACACAGCUUACAGUA [(CA)10 circular]” were, in that order, “binds more weakly” and “binds”.
As for “GGGAGUAAGCCCUGCCUGUCUAUUGAUGUCGCUUACAGUA [control circular]”, the binding result in data set [2] (circular (T4 RNA ligase)) is recorded as “no binding”.
In the case of “GGGAGUAAGCCCUGCCUGUCUAUUGAUGUCGCUUACAGUA [control linear]”, in data set [2], the binding result was “no binding”.
Regarding “GGGAGUAAGCAUACAUGACACACACACGCAGCUUACAGUA [CA-SELEX (L#51) circular]”, the binding result in data set [1] (background level, circular (T4 RNA ligase)) is recorded as “no binding”; in data set [2] (circular (T4 RNA ligase)) it was “binds”.
In the case of “GGGAGUAAGCCACACACACACACACACACAGCUUACAGUA [(CA)10 linear]”, the binding result is listed as “binds more weakly” in data set [1] and “binds” in data set [2].
As for “GGGAGUAAGCAUACAUGACACACACACGCAGCUUACAGUA [CA-SELEX (L#51) linear]”, the binding result in data set [1] (background level) is given as “no binding”; in data set [2], “binds”.
As for “GGGAGUAAGCCACACACACACACACACACACACACACACACACACACACAGCUUACAGUA [(CA)20 circular]”, the binding result in data set [1] (circular (T4 RNA ligase)) is reported as “binds more weakly”; in data set [2] (circular (T4 RNA ligase)), “binds”.
Turning to “GGGAGUAAGCCACACACACACACACACACACACACACACAGCUUACAGUA [(CA)15 linear]”, the results for the binding result in data set [1] and in data set [2] were “binds more weakly” and “binds”, respectively.
The like results for “GGGAGUAAGCCACACACACACACACACACACACACACACACACACACACAGCUUACAGUA [(CA)20 linear]” were, in that order, “binds more weakly” and “binds”.
